Test results taken from PMC10287929.
No constants are given. Whether binding was seen depends on the method and setting. Binding seen in cells or lysates may run through a third protein. Some entries that bind do so weakly or less than the wild type.

The chains behind the UniProt entries cited, without tags or fusion partners.
UniProt Q60972: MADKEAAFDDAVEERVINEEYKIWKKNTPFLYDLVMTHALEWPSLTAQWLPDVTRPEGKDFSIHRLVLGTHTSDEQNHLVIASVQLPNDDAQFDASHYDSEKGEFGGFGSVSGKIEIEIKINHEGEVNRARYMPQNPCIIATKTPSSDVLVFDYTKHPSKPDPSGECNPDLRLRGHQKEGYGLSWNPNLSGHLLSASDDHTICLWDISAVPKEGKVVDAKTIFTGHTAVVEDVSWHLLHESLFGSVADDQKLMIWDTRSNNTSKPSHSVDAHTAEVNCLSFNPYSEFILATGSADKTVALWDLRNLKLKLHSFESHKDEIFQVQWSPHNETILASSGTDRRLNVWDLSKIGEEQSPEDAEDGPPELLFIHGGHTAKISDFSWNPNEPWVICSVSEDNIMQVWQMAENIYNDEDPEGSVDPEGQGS
UniProt Q9Z148: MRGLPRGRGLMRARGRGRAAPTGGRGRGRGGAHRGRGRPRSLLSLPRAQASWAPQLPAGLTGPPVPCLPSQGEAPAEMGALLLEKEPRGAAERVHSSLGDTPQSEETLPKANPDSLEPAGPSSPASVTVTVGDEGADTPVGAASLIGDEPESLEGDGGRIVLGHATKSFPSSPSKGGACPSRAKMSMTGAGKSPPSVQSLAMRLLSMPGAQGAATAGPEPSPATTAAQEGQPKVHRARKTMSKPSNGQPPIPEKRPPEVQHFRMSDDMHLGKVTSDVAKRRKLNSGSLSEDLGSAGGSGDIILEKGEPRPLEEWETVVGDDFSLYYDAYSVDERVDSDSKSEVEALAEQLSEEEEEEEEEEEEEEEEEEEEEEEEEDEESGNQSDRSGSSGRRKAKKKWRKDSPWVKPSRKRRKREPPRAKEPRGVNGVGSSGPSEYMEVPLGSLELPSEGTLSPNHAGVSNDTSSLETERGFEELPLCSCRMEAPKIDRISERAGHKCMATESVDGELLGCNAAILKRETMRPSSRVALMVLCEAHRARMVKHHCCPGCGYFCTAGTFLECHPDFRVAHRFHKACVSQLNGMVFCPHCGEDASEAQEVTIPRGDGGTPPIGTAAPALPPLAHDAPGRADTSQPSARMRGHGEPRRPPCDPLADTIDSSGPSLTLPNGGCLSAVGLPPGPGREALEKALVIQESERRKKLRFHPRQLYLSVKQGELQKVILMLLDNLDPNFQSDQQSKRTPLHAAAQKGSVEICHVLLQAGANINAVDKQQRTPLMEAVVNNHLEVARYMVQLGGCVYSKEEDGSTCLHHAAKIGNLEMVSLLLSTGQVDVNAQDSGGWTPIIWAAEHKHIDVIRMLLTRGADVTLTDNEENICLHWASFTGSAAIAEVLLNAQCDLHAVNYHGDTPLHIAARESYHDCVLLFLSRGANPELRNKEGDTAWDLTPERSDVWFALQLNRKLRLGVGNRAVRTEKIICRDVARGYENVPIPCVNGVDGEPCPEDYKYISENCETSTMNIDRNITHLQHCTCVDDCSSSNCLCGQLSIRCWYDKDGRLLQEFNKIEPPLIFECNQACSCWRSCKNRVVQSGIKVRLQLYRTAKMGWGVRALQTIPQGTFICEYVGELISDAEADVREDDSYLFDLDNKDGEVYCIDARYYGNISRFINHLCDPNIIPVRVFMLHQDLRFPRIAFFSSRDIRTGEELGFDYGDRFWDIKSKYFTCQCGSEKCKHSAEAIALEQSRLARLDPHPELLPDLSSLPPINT
UniProt Q6PDQ2: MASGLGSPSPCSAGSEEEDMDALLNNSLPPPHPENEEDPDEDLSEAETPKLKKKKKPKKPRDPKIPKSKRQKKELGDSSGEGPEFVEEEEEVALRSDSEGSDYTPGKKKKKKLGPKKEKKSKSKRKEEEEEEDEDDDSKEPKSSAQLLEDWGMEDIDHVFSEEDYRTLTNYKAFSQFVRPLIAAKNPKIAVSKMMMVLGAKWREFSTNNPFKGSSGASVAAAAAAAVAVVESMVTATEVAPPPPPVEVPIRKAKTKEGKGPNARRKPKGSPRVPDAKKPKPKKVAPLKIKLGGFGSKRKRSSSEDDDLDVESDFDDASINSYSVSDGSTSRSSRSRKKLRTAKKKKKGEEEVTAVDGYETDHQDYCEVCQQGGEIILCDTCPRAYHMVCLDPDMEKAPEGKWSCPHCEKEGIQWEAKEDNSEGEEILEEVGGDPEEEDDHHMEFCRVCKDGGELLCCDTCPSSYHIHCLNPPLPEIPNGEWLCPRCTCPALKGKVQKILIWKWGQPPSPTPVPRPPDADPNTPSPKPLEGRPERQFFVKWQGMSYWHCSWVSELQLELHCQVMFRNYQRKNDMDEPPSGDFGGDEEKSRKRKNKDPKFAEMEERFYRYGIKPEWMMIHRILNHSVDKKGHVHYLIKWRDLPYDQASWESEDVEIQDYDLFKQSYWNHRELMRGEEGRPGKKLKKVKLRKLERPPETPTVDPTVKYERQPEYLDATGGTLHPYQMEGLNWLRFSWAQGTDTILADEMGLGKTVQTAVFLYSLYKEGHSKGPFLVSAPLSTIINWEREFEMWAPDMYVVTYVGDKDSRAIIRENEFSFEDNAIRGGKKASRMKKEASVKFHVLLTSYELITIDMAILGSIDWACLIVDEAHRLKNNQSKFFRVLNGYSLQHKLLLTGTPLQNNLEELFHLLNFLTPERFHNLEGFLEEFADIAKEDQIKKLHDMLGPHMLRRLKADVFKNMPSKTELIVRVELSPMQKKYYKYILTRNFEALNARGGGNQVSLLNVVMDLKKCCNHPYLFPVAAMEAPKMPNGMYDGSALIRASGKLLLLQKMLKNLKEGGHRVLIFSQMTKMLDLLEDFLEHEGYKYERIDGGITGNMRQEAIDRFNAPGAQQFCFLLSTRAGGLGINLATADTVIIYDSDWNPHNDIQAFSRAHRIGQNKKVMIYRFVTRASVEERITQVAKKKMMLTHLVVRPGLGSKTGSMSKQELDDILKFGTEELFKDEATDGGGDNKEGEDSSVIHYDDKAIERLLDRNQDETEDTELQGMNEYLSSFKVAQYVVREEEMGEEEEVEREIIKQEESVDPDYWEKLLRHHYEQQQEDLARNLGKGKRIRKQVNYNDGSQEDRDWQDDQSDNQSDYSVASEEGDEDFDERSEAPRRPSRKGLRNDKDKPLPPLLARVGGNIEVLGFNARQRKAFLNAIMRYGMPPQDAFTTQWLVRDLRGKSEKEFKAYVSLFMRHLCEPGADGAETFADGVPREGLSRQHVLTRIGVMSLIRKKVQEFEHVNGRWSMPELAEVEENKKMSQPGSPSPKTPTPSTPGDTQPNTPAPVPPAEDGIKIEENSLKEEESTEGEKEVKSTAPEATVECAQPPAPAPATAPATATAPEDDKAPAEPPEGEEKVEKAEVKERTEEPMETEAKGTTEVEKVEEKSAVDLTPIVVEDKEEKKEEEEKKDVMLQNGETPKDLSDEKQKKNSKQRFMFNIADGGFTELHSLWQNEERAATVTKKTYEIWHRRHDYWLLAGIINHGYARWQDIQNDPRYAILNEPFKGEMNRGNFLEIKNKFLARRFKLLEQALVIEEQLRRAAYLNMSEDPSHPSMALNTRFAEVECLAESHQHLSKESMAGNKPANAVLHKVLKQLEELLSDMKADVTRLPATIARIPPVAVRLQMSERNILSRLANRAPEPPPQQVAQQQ

Target: Flag-Avitag-RBBP4 (in vivo biotinylated RBBP4) (mouse) (UniProt Q60972)
Test: co-IP; Biotin immunoprecipitation: lysate (50 mM Tris-HCl pH 7.9, 150 mM NaCl, 1% NP-40) of Flag-Avitag-Rbbp4-overexpressing 46C mESCs, 1 mg protein, M280 Streptavidin Dynabeads overnight at 4°C, four washes in lysis buffer, western blots; Flag-Avitag cells as control

binding	Substance
binds	G9a (from UniProt Q9Z148 1-1263)
binds	CHD4 (from UniProt Q6PDQ2 1-1915)
